Laboratory results published in PubChem BioAssay AID504467 (National Center for Advancing Translational Sciences (NCATS), 2011).
Out of some 330,000 compounds screened, about 7,700 (2.3%) were called active. The inconclusive results got no clear call from the source; some entries with a clear call stand among them for comparison. Calls follow the shape of the dose curve; as a rule, active = well fitted inhibition curve with a large enough effect; inconclusive = small, poorly fitted or top-dose-only effect, or effect the other way; inactive = flat fitted curve, though single readings scatter. Where the call is inconclusive, the potency comes from a doubtful curve fit.

experiment: qHTS screen for small molecules that inhibit ELG1-dependent DNA repair in human embryonic kidney (HEK293T) cells expressing luciferase-tagged ELG1; settings: HEK293T ELG1-luciferase reporter, luminescence, 16 h, DNA damage induced by 5-fluorouridine; activity change, negative = inhibition: at 46.1 µM (top of the series); also: nearly all actives have a fitted effect of over 55% in size
Summary of the method: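 DMSO vehicle served as the neutral condition. Each well held 2,000 cells given 5-fluorouridine plus compound; after 16 hr at 37 °C/5% CO2, ONE-Glo was added and luciferase measured 30 min later.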
% is scaled to controls: 0 for no effect and ±100 for the full control effect; potency is read from the fitted curve at half-maximal effect.

Structure (SMILES) | Potency | activity change, negative = inhibition
O=C(Cc1csc(-c2ccc(Cl)cc2)n1)Nc1cccc(S(=O)(=O)NC2=NCCC2)c1 | inconclusive: 11.2 µM [inhibitor, single point] | –
O=C1/C(=C/c2ccccc2)Oc2cc(OC(=O)N3CCOCC3)ccc21 | inconclusive: 20.6 µM [activator, partial curve, poor fit] | –
O=C(NCC(=O)N1CCOCC1)c1ccccc1 | inconclusive: 29.1 µM [activator, single point] | –
CCc1ccc(N=C2N=C(N)c3ccccc32)cc1 | inconclusive: 9.2 µM [activator, partial curve] | –
CC(C)c1cc(CNC(=O)C2CCC(=O)N(CCc3ccc(Cl)cc3)C2)on1 (configuration not stated) | – | inactive: 1.42%
Cc1cc(C)cc(NC(=O)N2CCN(C/C=C/c3ccccc3)CC2)c1 | – | inactive: -3.38%
CC1CCN(Cc2c(C#N)c3ccccc3n2C)CC1 | – | inactive: -3.96%
S=C(NCc1cccs1)Nc1cc(Cl)cc(Cl)c1 | inconclusive: 25.9 µM [inhibitor, single point] | –
O=C(O)C1CCN(Cc2cccnc2)CC1 | – | inactive: 13.6%
CCOC(=O)Cn1c2c(c(=N)c3c1CCC3)CCC2 | inconclusive: 7.31 µM [inhibitor, partial curve] | –
COc1ccc(Nc2ncnc3sc(-c4ccccc4)cc23)cc1OC | inconclusive: 25.9 µM [inhibitor, single point] | –
CC1CCCN(C(=O)C2CCC(CNc3c(N4CCCCC4)c(=O)c3=O)CC2)C1 (configuration not stated) | – | inactive: -3.48%
COc1ccccc1-c1c(-c2ccc(OCC(=O)NN)cc2O)n[nH]c1C(F)(F)F | – | inactive: -27.3%
O=C(Nc1cccc(S(=O)(=O)NC2=NCCC2)c1)c1cc(-c2ccco2)nc2ccccc12 | – | inactive: -26.3%
Cc1sc2ncnc(N3CCC(C(=O)N(C)CC(=O)Nc4ccc(Cl)c(C(F)(F)F)c4)CC3)c2c1C | active: 3.66 µM | –
Cc1cc(S(=O)(=O)NC[C@H]2O[C@@H](n3cnc4c(N)ncnc43)[C@H](O)[C@@H]2O)c(C)s1 | – | inactive: -14%
COc1ccccc1NS(=O)(=O)c1cccc(C(=O)OCC(=O)Nc2cc(C)on2)c1 | – | inactive: -16.9%
CCOC(=O)C(=Cc1ccc(-n2ccnc2)cc1)C(=O)OCC | inconclusive: 20.6 µM [inhibitor, partial curve, poor fit] | –
CCOC(=O)C1CCCCN1Cc1ccc(F)c(Br)c1 (configuration not stated) | inconclusive: 14.6 µM [activator, partial curve, poor fit] | –
O=C(O)c1cccc(-c2ccc(/C=N/n3cnnc3)o2)c1 | – | inactive: 2.66%
O=C(CCCn1c(=S)[nH]c2ccsc2c1=O)NC1CCCCC1 | inconclusive: 32.6 µM [activator, partial curve, poor fit] | –
O=C(COC(=O)c1ccc(Br)o1)c1ccc(S(=O)(=O)N2CCCCC2)cc1 | – | inactive: 18.4%
Cc1nn(-c2ccccc2)c2c1C(c1ccco1)C(C#N)=C(N)O2 (configuration not stated) | inconclusive: 1 µM [activator, single point] | –
COc1ccc(CNC(=O)C(C)OC(=O)c2cccc(N(C)C)c2)cc1 (configuration not stated) | inconclusive: 7.3 µM [inhibitor, single point] | –

Whole records, quoted from the list. Values in the order: Potency	activity change, negative = inhibition
Cc1sc2ncnc(N3CCC(C(=O)N(C)CC(=O)Nc4ccc(Cl)c(C(F)(F)F)c4)CC3)c2c1C in the list: active: 3.66 µM	–
O=C(CCCn1c(=S)[nH]c2ccsc2c1=O)NC1CCCCC1 in the list: inconclusive: 32.6 µM [activator, partial curve, poor fit]	–

The listing continues:

Structure (SMILES) | Potency | activity change, negative = inhibition
CN(C)c1nc(NCc2ccccc2)nc(SCC(=O)Nc2ccccc2)n1 | inconclusive: 4.61 µM [inhibitor, single point] | –
N#C/C(=C(/O)COC(=O)CCC1CCCCC1)c1nc2ccccc2[nH]1 | – | inactive: 17.9%
CC(=O)n1cc([C@H]2C=C(C(=O)NCc3ccccc3)O[C@@H](OCc3ccc(CO)cc3)C2)c2ccccc21 | inconclusive: 8.2 µM [inhibitor, partial curve, poor fit] | –
Cc1ccccc1OC1=NS(=O)(=O)c2ccccc21 | inconclusive: 18.3 µM [activator, partial curve, poor fit] | –
Cc1cnc(NC(=O)c2c(-c3ccccc3)noc2C)s1 | inconclusive: 0.651 µM [inhibitor, full curve, poor fit] | –
CCOc1ccc(-c2c(C(=O)N/N=C/c3c[nH]c4ccccc34)nnn2-c2nonc2N)cc1 | inconclusive: 29.1 µM [inhibitor, single point] | –
CC(C)C[C@H](NC(=O)Nc1ccc(Oc2ccccc2)cc1)C(=O)O | – | inactive: -12.4%
O=C(CC1S/C(=N/N=C/c2cccnc2)NC1=O)Nc1ccccc1 (configuration not stated) | – | inactive: 2.99%
CC(=O)N/N=C/c1ccccc1OCCOc1cccc(C)c1 | inconclusive: 20.6 µM [activator, single point] | –
COc1ccccc1CC(=O)N1CCN(c2cccc(C(F)(F)F)c2)CC1 | – | inactive: -11%
COc1cccc(C=Nc2ccc3c(c2)CCC3)c1O | – | inactive: -0.879%
Cc1ccc(CSCc2ccc(C(=O)NCC3CCCO3)o2)cc1 (configuration not stated) | inconclusive: 20.6 µM [inhibitor, single point] | –
O=S(=O)(NC1=NCCC1)c1cccs1 | inconclusive: 25.9 µM [activator, partial curve, poor fit] | –
COC(=O)N1CCN(c2ccc(Cl)c(Cl)c2)CC1 | inconclusive: 16.4 µM [inhibitor, partial curve, poor fit] | –
Cc1oc2c(c(C)cc3oc(=O)c(CC(=O)NCCCN4CCCC4=O)c(C)c32)c1C | – | inactive: -11%
C/C(=N\NC(=O)COc1ccccc1-c1ccccc1)c1ccc(O)cc1O | active: 23.1 µM | –
COc1ccc(-c2nsc3c(N4CCCCC4)ncnc23)cc1 | inconclusive: 0.291 µM [activator, full curve] | –
Cc1cccc(/N=C/c2sc3ccccc3c2O)n1 | inconclusive: 9.2 µM [activator, partial curve] | –
CCOC(=O)Cn1c(=O)n(Cc2ccco2)c(=O)c2ccc(C(=O)NCCc3ccccc3)cc21 | inconclusive: 16.4 µM [inhibitor, single point] | –
O=C(NC1CCCC1)C(c1ccccn1)N(Cc1ccccc1F)C(=O)c1csnn1 (configuration not stated) | – | inactive: -0.225%
COc1ccc(C)cc1NC(=O)CSc1cccc[n+]1[O-] | – | inactive: 0%
COc1ccc(OCCn2c(=O)sc3ccccc32)cc1 | inconclusive: 23.1 µM [activator, partial curve] | –
COc1ccccc1S(=O)(=O)NCc1ccc(C(=O)NC(C)c2ccccn2)cc1 (configuration not stated) | inconclusive: 25.9 µM [activator, single point] | –
